PubChem BioAssay AID1224830 – NIAID, 2016

Test: 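Genes whose knock-down alters the TNF-alpha reporter response to LPS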 (primary screen)
Cell system: human THP-1 monocytic leukaemia cells, TNF dual-luciferase reporter clone, PMA-differentiated to macrophage-like cells
Reagent: siRNA pool against human genes, 50 nM
Time to read-out: LPS for 4 h, given about 3 days after siRNA transfection
Treatment: bacterial LPS (TLR4 ligand), 10 ng/ml
Measurement: 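Ratio of firefly to renilla light, scaled to the plate median and expressed as a robust z-score per replicate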
Scale: TNF reporter robust z-score: higher = stronger TNF reporter response to LPS
Call rule: 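Each well counts as active if its z-score is over 2.8 or under -1.5; controls are left without a call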
The whole screen tested about 18,000 reagents; this is a random part of them. In the full data, about 2,900 (16%) are marked active. 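Calls are made per well; low scores hint the gene aids the LPS response, high scores that it dampens it.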 Repeated entries: four replicate wells of each siRNA pool.

gene knocked down,TNF reporter robust z-score,activity call
CARM1,2.66,inactive
CARM1,2.79,inactive
CARM1,-0.28,inactive
CARM1,1.21,inactive
CITED4,2.6,inactive
CITED4,1.93,inactive
CITED4,1.76,inactive
CITED4,2.81,active
CADM1,-0.94,inactive
CADM1,-0.75,inactive
CADM1,-0.87,inactive
CADM1,-0.89,inactive
TENT2,1.33,inactive
TENT2,-0.27,inactive
TENT2,-0.19,inactive
TENT2,0.94,inactive
LMOD1,-0.18,inactive
LMOD1,-0.26,inactive
LMOD1,0.59,inactive
LMOD1,-0.76,inactive
MIF4GD,-0.01,inactive
MIF4GD,0.31,inactive
MIF4GD,-0.24,inactive
MIF4GD,0.6,inactive
CST11,-0.74,inactive
CST11,0.91,inactive
CST11,-0.33,inactive
CST11,-0.1,inactive
DECR2,-0.52,inactive
DECR2,1.19,inactive
DECR2,0.29,inactive
DECR2,0.09,inactive
PSMB4,-1.87,active
PSMB4,-1.43,inactive
PSMB4,-1.62,active
PSMB4,-1.58,active
RDH10,-2,active
RDH10,-1.66,active
RDH10,-0.63,inactive
RDH10,-0.62,inactive
HRC,0.28,inactive
HRC,-1.99,active
HRC,-0.62,inactive
HRC,-0.55,inactive
DDAH2,-2.06,active
DDAH2,-1.56,active
DDAH2,-1.21,inactive
DDAH2,-1.23,inactive
MRGBP,0.57,inactive
MRGBP,-1.01,inactive
MRGBP,-0.65,inactive
MRGBP,-0.02,inactive

Additional reagents follow.
gene knocked down,TNF reporter robust z-score,activity call
PTH,0.11,inactive
PTH,-0.01,inactive
PTH,-0.46,inactive
PTH,-0.07,inactive
BTG4,,inactive
BTG4,-1.7,active
BTG4,-1.8,active
BTG4,-1.84,active
BTG4,-1.53,active
GPR37L1,0.15,inactive
GPR37L1,-0.06,inactive
GPR37L1,-0.42,inactive
GPR37L1,-0.18,inactive
NEFH,0.78,inactive
NEFH,0.71,inactive
NEFH,1.87,inactive
NEFH,1.36,inactive
ZNF335,-1.17,inactive
ZNF335,-0.25,inactive
ZNF335,-1.03,inactive
ZNF335,-0.6,inactive
AGT,-0.16,inactive
AGT,-1.07,inactive
AGT,-0.71,inactive
AGT,-0.85,inactive
IFIT3,0.73,inactive
IFIT3,-0.23,inactive
IFIT3,-0.5,inactive
IFIT3,0.54,inactive
ZNF114,0.3,inactive
ZNF114,1.2,inactive
ZNF114,-0.43,inactive
ZNF114,0.68,inactive
HS1BP3,-0.44,inactive
HS1BP3,0.52,inactive
HS1BP3,-0.46,inactive
HS1BP3,0.18,inactive
REEP5,0.9,inactive
REEP5,2.36,inactive
REEP5,1.96,inactive
REEP5,1.81,inactive
L3HYPDH,-0.26,inactive
L3HYPDH,-0.34,inactive
L3HYPDH,0,inactive
L3HYPDH,-0.05,inactive
BPY2C,-1.25,inactive
BPY2C,-0.71,inactive
BPY2C,-1.16,inactive
BPY2C,0.26,inactive
BCKDHA,-0.13,inactive
BCKDHA,0.1,inactive
BCKDHA,-0.03,inactive
BCKDHA,0.28,inactive
EPHX3,1.14,inactive
EPHX3,0.8,inactive
EPHX3,0.96,inactive
EPHX3,1.2,inactive
ZBTB6,1.03,inactive
ZBTB6,0.08,inactive
ZBTB6,-0.23,inactive
ZBTB6,0.53,inactive
TLR2,-1.51,active
TLR2,-1.38,inactive
TLR2,-1.34,inactive
TLR2,-0.06,inactive
HES4,-0.36,inactive
HES4,0.13,inactive
HES4,0.15,inactive
HES4,0.1,inactive
ARMC12,1.51,inactive
ARMC12,3.36,active
ARMC12,2.26,inactive
ARMC12,2.35,inactive
PIGO,-0.3,inactive
PIGO,0.11,inactive
PIGO,1.13,inactive
PIGO,1.41,inactive
CREB1,-1.56,active
CREB1,-1.47,inactive
CREB1,-1.74,active
CREB1,-1.54,active
SNTA1,-0.07,inactive
SNTA1,-0.06,inactive
SNTA1,-0.79,inactive
SNTA1,0.09,inactive
SNX16,-0.73,inactive
SNX16,0.48,inactive
SNX16,0,inactive
SNX16,0.36,inactive
